Experimental data reported in PMC11162808.
These are yes or no findings as the source states them, for the method shown. In cells and extracts the contact can be indirect. Some entries that bind do so weakly or less than the wild type.

Protein sequences, listed by entry. Tags and fused reporters are not part of them.
UniProt O14497: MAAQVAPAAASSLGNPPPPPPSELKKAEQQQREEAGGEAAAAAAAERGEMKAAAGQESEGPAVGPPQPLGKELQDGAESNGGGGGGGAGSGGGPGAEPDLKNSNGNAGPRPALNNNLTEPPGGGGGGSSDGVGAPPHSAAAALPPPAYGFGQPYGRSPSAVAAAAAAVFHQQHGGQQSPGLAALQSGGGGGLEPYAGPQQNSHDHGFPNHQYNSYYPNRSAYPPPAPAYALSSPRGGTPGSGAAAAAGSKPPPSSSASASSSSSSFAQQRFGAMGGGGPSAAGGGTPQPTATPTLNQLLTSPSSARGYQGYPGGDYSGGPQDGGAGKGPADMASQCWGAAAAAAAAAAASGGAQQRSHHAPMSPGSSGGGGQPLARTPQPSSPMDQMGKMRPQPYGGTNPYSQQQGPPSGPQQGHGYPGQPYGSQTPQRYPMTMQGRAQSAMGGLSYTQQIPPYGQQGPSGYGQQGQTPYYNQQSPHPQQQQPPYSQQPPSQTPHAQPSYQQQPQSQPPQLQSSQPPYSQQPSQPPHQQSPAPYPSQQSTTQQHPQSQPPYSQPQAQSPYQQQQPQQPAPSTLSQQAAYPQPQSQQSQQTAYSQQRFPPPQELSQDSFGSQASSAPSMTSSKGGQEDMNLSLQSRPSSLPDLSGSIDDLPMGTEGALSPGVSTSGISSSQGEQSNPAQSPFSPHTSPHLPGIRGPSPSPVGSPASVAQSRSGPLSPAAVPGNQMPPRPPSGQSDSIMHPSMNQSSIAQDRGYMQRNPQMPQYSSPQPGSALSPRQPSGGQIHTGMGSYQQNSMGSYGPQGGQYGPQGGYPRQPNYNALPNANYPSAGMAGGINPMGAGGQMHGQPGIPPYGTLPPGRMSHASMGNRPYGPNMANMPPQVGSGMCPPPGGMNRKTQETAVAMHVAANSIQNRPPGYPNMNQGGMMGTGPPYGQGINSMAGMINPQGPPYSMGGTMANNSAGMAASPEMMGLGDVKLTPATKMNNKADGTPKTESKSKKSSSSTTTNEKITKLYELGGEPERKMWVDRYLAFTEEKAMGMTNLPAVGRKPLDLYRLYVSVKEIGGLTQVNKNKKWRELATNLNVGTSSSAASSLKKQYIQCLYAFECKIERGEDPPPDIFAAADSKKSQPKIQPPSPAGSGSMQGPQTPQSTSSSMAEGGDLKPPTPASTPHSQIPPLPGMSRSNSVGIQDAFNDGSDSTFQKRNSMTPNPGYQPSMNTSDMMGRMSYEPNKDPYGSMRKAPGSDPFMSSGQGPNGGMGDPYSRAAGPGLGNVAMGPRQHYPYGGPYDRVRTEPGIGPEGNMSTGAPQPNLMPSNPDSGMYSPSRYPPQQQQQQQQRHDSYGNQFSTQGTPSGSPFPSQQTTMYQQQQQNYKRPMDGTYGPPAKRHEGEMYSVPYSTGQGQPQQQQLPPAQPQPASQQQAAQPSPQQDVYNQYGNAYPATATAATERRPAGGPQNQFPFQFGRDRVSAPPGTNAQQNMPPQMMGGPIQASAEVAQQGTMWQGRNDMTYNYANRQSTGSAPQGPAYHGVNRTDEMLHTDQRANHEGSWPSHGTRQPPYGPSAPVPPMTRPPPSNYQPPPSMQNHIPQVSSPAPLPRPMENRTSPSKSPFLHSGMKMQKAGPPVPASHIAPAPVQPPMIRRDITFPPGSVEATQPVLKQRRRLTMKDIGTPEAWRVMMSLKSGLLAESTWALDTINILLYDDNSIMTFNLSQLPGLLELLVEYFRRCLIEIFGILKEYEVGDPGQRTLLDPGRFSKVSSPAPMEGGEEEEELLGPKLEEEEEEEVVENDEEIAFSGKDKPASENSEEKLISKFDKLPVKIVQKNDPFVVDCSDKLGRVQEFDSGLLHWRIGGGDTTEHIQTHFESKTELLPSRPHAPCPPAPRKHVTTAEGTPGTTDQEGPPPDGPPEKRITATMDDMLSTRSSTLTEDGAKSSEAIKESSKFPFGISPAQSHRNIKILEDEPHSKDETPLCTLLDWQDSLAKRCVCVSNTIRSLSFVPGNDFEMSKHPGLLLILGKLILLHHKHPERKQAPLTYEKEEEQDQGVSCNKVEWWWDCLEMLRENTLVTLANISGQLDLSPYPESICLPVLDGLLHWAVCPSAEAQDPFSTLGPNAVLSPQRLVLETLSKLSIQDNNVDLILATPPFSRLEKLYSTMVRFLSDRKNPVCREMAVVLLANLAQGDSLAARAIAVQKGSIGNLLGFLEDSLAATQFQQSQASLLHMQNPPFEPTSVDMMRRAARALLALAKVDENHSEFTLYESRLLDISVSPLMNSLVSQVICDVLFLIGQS
UniProt Q13547: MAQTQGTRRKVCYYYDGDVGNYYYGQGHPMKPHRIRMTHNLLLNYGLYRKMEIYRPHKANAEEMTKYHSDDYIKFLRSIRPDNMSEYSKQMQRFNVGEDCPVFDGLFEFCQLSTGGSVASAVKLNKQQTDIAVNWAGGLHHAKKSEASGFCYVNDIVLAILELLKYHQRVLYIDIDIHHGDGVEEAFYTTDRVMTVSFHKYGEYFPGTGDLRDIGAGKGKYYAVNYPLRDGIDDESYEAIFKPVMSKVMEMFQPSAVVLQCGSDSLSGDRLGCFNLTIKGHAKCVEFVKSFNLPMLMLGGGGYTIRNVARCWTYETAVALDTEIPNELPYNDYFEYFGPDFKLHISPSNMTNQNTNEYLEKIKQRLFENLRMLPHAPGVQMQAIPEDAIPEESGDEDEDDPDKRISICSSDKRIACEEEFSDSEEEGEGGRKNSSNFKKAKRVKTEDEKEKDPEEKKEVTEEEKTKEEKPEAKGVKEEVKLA

Biological target: AT-rich interaction domain protein 1A (ARID1A) (human (endogenous in the paper's human cell lines; the line used for the IP is not stated)) (UniProt O14497)
Assay: co-IP; IP with anti-ARID1A (anti-IgG as control) from benzonase-treated nuclear lysate, protein A/G magnetic beads, beads boiled in Laemmli buffer and loaded on an SDS gel; cells without and with DNA damage

With HDAC1 (from UniProt Q13547 1-482) the binding was “binds”.
